Reference: publication PMC12204631

T1: 6HIS-HA-JHD2 (S. cerevisiae) (UniProt P47156)
T1 sequence: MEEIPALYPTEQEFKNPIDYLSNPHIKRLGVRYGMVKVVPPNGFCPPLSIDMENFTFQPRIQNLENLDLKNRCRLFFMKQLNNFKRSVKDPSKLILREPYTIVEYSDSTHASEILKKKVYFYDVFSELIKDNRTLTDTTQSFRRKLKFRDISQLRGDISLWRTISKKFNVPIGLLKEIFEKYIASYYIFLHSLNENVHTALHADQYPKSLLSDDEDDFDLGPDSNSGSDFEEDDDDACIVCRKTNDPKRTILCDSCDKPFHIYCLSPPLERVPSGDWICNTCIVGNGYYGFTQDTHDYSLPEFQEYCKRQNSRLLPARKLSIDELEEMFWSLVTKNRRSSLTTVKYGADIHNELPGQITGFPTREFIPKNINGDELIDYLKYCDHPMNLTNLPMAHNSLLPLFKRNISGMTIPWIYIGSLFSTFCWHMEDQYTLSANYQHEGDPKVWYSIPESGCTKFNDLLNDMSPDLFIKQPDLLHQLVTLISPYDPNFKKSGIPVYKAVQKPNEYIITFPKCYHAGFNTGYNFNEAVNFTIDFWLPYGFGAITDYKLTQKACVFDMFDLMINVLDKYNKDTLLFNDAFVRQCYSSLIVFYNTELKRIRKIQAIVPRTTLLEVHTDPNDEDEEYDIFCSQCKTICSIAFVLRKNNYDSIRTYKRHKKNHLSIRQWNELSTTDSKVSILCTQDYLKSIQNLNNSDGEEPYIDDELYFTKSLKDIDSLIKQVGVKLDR

B1: BUB3 (protein, UniProt P26449 1-341)
chain: MQIVQIEQAPKDYISDIKIIPSKSLLLITSWDGSLTVYKFDIQAKNVDLLQSLRYKHPLLCCNFIDNTDLQIYVGTVQGEILKVDLIGSPSFQALTNNEANLGICRICKYGDDKLIAASWDGLIEVIDPRNYGDGVIAVKNLNSNNTKVKNKIFTMDTNSSRLIVGMNNSQVQWFRLPLCEDDNGTIEESGLKYQIRDVALLPKEQEGYACSSIDGRVAVEFFDDQGDDYNSSKRFAFRCHRLNLKDTNLAYPVNSIEFSPRHKFLYTAGSDGIISCWNLQTRKKIKNFAKFNEDSVVKIACSDNILCLATSDDTFKTNAAIDQTIELNASSIYIIFDYEN
B2: BIK1 (protein, UniProt P11709 1-440)
chain: MDRYQRKIGCFIQIPNLGRGQLKYVGPVDTKAGMFAGVDLLANIGKNDGSFMGKKYFQTEYPQSGLFIQLQKVASLIEKASISQTSRRTTMEPLSIPKNRSIVRLTNQFSPMDDPKSPTPMRSFRITSRHSGNQQSMDQEASDHHQQQEFGYDNREDRMEVDSILSSDRKANHNTTSDWKPDNGHMNDLNSSEVTIELREAQLTIEKLQRKQLHYKRLLDDQRMVLEEVQPTFDRYEATIQEREKEIDHLKQQLELERRQQAKQKQFFDAENEQLLAVVSQLHEEIKENEERNLSHNQPTGANEDVELLKKQLEQLRNIEDQFELHKTKWAKEREQLKMHNDSLSKEYQNLSKELFLTKPQDSSSEEVASLTKKLEEANEKIKQLEQAQAQTAVESLPIFDPPAPVDTTAGRQQWCEHCDTMGHNTAECPHHNPDNQQFF
B3: RMT2 (protein, UniProt Q03305 1-412)
chain: MSELHALLTFPERPISQSYYVPKLQHFLKSGIPATYTLEQVAAFEHEEKNRNGDKEFRESTDDNKTSNTTPLHVLARSLPLDIKDEELQVVMDMMNILFEYGAGWNFIDYEDKTVGDLFLERNQSRESPLYRRLVEAGVSAELLLRKLNGGDVEFLDTDELIGIEPEESVQTAVDGQKEESVGSDDDATAANQQVYLKTELEYKDDALITKENKDGVMMDWETKIMELASETLFPDPEATNSATILNIGFGMGIIDTFIQARKPYRHYICEAHPDVLAKMKMDGWYEKDNVVILEGRWQDTLNNLLDKGEVFFDGIYYDTFSEHYQDILDLYDVVVGLIKPEGVFSFFNGLGADRSLCYDVYKEIVEIDVATYGMKCDYTRYSLDEQLPDWNDVKRSYFNCNYYYHPRITFA
B4: SET2 (protein, UniProt P46995 1-733)
chain: MSKNQSVSASEDEKEILNNNAEGHKPQRLFDQEPDLTEEALTKFENLDDCIYANKRIGTFKNNDFMECDCYEEFSDGVNHACDEDSDCINRLTLIECVNDLCSSCGNDCQNQRFQKKQYAPIAIFKTKHKGYGVRAEQDIEANQFIYEYKGEVIEEMEFRDRLIDYDQRHFKHFYFMMLQNGEFIDATIKGSLARFCNHSCSPNAYVNKWVVKDKLRMGIFAQRKILKGEEITFDYNVDRYGAQAQKCYCEEPNCIGFLGGKTQTDAASLLPQNIADALGVTVSMEKKWLKLKKLSGEPIIKNENENINIEFLQSLEVQPIDSPVDVTKIMSVLLQQDNKIIASKLLKRLFTIDDDSLRHQAIKLHGYTCFSKMLKLFITEQPQVDGKGNETEEDDIKFIKGILDFLLELPKTTRNGIESSQIDNVVKTLPAKFPFLKPNCDELLEKWSKFETYKRITKKDINVAASKMIDLRRVRLPPGWEIIHENGRPLYYNAEQKTKLHYPPSGSSKVFSSRSNTQVNSPSSSGIPKTPGALDSKKHKLSDEEYERKKQKRLEYERIALERAKQEELESLKQKLKLENERKSVLEDIIAEANKQKELQKEEAKKLVEAKEAKRLKRKTVSQSQRLEHNWNKFFASFVPNLIKKNPQSKQFDHENIKQCAKDIVKILTTKELKKDSSRAPPDDLTKGKRHKVKEFINSYMDKIILKKKQKKALALSSASTRMSSPPPSTSS
B5: RKM4 (protein, UniProt Q12504 1-494)
chain: MDDFSRDTENFVCWLKTTAEIEVSPKIEIKDLCCDNQGRAVVATQKIKKDETLFKIPRSSVLSVTTSQLIKDYPSLKDKFLNETGSWEGLIICILYEMEVLQERSRWAPYFKVWNKPSDMNALIFWDDNELQLLKPSLVLERIGKKEAKEMHERIIKSIKQIGGEFSRVATSFEFDNFAYIASIILSYSFDLEMQDSSVNENEEEETSEEELENERYLKSMIPLADMLNADTSKCNANLTYDSNCLKMVALRDIEKNEQVYNIYGEHPNSELLRRYGYVEWDGSKYDFGEVLLENIVEALKETFETNTEFLDRCIDILRNNANIQEFLEGEEIVLDSYDCYNNGELLPQLILLVQILTILCQIPGLCKLDIKAMERQVERIVKKCLQLIEGARATTNCSATWKRCIMKRLADYPIKKCVSIEKPSKGNSLTREELRDVMARRVLKSEIDSLQVCEETIDKNYKVIPDEKLLTNILKRKLTEEEKSSVKRPCVKK
B6: SET5 (protein, UniProt P38890 1-526)
chain: MTLTIKIGTLNDSDQSAVHNGTENGSDFRKITPTEEEICDDVVLLWKEEPGTEDATIQHLYDRITERNQSWKLSASRFRKILNEHHLYDTDLETVSLYKDKIHFPKALDSDAKVEVKFIDDEHGRGLFAKRDFSKGQIILKENKPIVYIPPLDKLFLISNGKACARCGKALYDLTQHKIMVHYLDCEVCKAIWCSEKCKKAHASLHELLYHSWRSNRIDILHAGNWKRFVNYCEKYCFTAAFSVGLIYGSMLLDTTGEVKEQWQKLASISQRERIKLRDASGIGSTFSLLNGTTVHTEEESDNGTKKGVEKNIDDETVWEKCYELFCGAFPKASEEIDFEKFLTMIGTFNINQYNGQVYHWISFINHDCEPNAYIEQVEEHEELRLHARKPIKKGEQIRITYVNPLHGVRLRRRELRVNWGFLCQCDRCQNELSTFERVPNLEKKNADANLGVEKIDSNDSSEDGSKKSTGNRKSSMREAQPDLKEILKNGKEFELDIPETVDTQGNVRKTSVRFDSNVSVAVDER
B7: RKM1 (protein, UniProt Q08961 1-583)
chain: MSSDALKALLQWGASFGVIVPEELKFLYTDLKGIICVCEKDIDNPSIKIPPEIVISRNLPMKFFGLSESTKNINGWLKLFFAKIKFDRDNDTIVDNVRVNDKFKPYLDALPSRLNSPLVWNPSELKRLSSTNIGNSIHEKFEGIFKEWFELVSSSDMFDLERVADDVQTFHNLDELTYEALYEKILKITELQRPTIWYSFPAFLWSHLIFISRAFPEYVLNRNCPDNSIVLLPIVDLLNHDYRSKVKWYPENGWFCYEKIGTASQSRELSNNYGGKGNEELLSGYGFVLEDNIFDSVALKVKLPLDVVSTILETEPSLKLPLLSDYTTYAFENKDCVQQEKKATRSATDYINGVTYFINIQNEQCLEPLLDLFTYLSKAEEEDLHDLRARLQGIQMLRNALQSKLNSITGPPATDDSYAIDPYRVYCADVYTKGQKQILKEALTRLKKLEKTMLSENKHQLLTMSKILKNDPAFAETELPSLFSNEDGEEVIFESTYDLLILWILLKTKKNSYPTKYEWVGQQYTNFKQTAYISDDAKAFHTAYFEKQDDVDLAEVDHAIQFVVDNSFTRTSSTTEETILVRK
B8: SEE1 (protein, UniProt P40516 1-229)
chain: MQGTADLSTSKLGTKKYWDELYALELENFRRNPQDTGDCWFSDSDAEQKMIDFLVDNIGAYRISENASVVDLGTGNGHMLFELHQTEFQGKLVGIDYSEESVKLASNIAEATGVDNFISFQQADIFSGDWKPGKYDIVLDKGTLDAISLSGMKINGKLDVVDVYAGVVERILKKDGIFLITSCNFTQDELVKIIETDNLKMWKTIKYPVFQFGGVQGATICSVAFVKQN
B9: OMS1 (protein, UniProt Q06668 40-471)
chain: NSSHIDDDKSKKKLKNVFQMNSNRVIRKQKTKEELAKERFEEQLRSPNRFVRWGAIARSEKFSKGMTKYMIGAYVIFLIYGLFFTKKLFAKDKELERLLKKQEEGNANEYEALRIKELKGKLRRRDELKLEEYKKMQEEGIENFDDIRVQNFDQNKLNEQILPARDTTNFYQEKANEYDKAINMEERVIFLGKRRKWLMKHCQGDVLEVSCGTGRNIKYLDMSRINSITFLDSSENMMEITHKKFREKFPKYKKVAFVVGKAENLVDLAEKGKPSLENEKENQVKYDTIVEAFGLCSHEDPVKALNNFGKLLKPDGRIILLEHGRGQYDFINKILDNRAERRLNTWGCRWNLDLGEVLDDSDLELVEEKRTHLGTTWCIVAKRKGDVKKKDELGFVEKYLQSSIRKRMESFEKKDDMASKKELEPVPPVSKS
B10: RKM3 (protein, UniProt P38222 1-552)
chain: MSVTFKDDVHRILKFVANCNGRFEDSKCDIRESPLGGLGVFAKTDIAEGESILTLNKSSIFSASNSSIANLLCDSSIDGMLALNIAFIYETTVFRNSSHWYPFLRTIRIRDDEGHLNLPPSFWHADAKRLLKGTSFDTLFDSLAPEEEIMEGFEIAVDLAHKWNDEFGLEIPKGFLDVSEENHEEDYNLKLEKFISVAYTLSSRGFEIDAYHETALVPIADLFNHHVSDPDLKFVSLYDVCDKCGEPDMCKHLIAEEYLEAENLDKNMPKVASMETRVIDEDLIKSLENDLEKEYSNVTANIEDDDGGIENPDECVDLVLKNDVAQGQEIFNSYGELSNVFLLARYGFTVPENQYDIVHLGPDFMKILKKEEKYQEKVKWWSQVGHGLFSAWYAQMRQEDEEDEDGQAKSDNLSDDIESEEEEEEEEGDDSLESWLSQLYIDSSGEPSPSTWALANLLTLTAVQWESLFSKKATPHISDSIVNEEKLPFLAKKDNPHSKKLLSNLLKEKQLPCIKGDNSSKITSATKSMLQNARTLVQSEHNILDRCLKRLS

Biological target: T1, 6HIS-HA-JHD2 (S. cerevisiae)
Assay: affinity purification with mass spectrometry; whole cell extracts of a wild-type strain with 6HIS-HA-JHD2 induced from the GAL1 promoter for 6 hours; Ni-NTA agarose and anti-HA agarose beads at 4°C for 24 hours; proteins found with the empty vector strain excluded

binding, binds:
B1
B2
B3
B4
B5
B6
B7
B8
B9
B10

No constants are given. Whether binding was seen depends on the method and setting. Binding seen in cells or lysates may run through a third protein. A yes stands for co-enrichment or nearness to the bait. Other partners may have been found. Tags and fused reporters may be left off the sequences shown.
